Results are given in words; binding and its absence hold for the method and conditions named. For some of these results: In cells and extracts the contact can be indirect. Some entries that bind do so weakly or less than the wild type.
What was measured:
[1] = biological target: EGFP-Sra1 (WT) (murine) (UniProt Q7TMB8); assay: co-IP
[2] = biological target: EGFP-Sra1 ΔD (Sra1^Y967A) (murine) (UniProt Q7TMB8); assay: co-IP
[3] = biological target: EGFP-Sra1 ΔM #1 (Sra1^Y986A/E988A) (murine) (UniProt Q7TMB8); assay: co-IP
[4] = biological target: EGFP-Sra1 ΔM #2 (Sra1^Y948A/T951A) (murine) (UniProt Q7TMB8); assay: co-IP
[5] = biological target: GST-Arf6 (UniProt P62330); assay: pull-down
[6] = biological target: GST-Arf5 (UniProt P84085); assay: pull-down

By UniProt entry, the sequences of proteins in these tests, tags left out. Where a name states a change or a piece, a line headed by the entry shows the natural chain unless it says otherwise.
UniProt Q7TMB8: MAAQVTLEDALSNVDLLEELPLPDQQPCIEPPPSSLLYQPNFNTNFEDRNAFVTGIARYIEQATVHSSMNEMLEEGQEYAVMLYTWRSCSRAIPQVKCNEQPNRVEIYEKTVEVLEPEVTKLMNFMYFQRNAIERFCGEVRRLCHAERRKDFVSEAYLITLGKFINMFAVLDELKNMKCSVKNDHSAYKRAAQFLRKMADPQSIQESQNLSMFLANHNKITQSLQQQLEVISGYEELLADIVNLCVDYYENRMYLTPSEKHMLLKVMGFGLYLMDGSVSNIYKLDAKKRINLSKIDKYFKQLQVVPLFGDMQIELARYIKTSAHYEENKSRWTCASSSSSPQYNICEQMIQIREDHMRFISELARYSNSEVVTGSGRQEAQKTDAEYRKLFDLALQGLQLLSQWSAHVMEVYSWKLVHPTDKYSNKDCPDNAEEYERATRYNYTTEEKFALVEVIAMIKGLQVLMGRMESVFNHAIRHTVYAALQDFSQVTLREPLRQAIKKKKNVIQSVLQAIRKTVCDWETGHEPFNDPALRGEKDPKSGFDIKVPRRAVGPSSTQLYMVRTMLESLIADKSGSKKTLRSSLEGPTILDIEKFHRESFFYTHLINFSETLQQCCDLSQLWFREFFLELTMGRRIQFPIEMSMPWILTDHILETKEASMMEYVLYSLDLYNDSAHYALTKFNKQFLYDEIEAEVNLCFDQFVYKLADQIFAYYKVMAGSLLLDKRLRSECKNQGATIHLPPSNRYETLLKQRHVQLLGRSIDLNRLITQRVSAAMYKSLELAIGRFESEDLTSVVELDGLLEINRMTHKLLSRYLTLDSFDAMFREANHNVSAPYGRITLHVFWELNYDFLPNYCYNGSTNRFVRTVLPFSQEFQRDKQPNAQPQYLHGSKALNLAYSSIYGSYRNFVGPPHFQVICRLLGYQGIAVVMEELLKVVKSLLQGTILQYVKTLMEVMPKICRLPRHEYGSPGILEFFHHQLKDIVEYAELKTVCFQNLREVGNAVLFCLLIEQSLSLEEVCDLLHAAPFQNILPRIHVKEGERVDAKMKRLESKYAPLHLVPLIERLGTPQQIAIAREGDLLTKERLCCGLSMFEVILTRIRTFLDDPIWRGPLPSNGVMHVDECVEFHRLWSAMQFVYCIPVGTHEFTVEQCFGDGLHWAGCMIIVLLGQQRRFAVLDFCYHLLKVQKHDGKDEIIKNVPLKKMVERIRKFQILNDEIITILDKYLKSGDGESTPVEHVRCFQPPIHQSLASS
UniProt P62330: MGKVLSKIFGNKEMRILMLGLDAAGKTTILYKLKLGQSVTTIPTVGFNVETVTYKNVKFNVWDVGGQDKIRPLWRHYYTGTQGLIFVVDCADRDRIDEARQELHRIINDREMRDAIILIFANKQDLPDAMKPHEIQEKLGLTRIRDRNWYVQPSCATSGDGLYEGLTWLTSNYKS
UniProt P84085: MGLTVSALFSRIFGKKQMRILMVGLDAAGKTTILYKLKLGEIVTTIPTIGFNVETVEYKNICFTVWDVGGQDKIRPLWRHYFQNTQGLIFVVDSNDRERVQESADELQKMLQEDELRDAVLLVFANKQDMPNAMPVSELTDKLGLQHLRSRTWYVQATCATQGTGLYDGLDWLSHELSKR
UniProt Q8CBW3: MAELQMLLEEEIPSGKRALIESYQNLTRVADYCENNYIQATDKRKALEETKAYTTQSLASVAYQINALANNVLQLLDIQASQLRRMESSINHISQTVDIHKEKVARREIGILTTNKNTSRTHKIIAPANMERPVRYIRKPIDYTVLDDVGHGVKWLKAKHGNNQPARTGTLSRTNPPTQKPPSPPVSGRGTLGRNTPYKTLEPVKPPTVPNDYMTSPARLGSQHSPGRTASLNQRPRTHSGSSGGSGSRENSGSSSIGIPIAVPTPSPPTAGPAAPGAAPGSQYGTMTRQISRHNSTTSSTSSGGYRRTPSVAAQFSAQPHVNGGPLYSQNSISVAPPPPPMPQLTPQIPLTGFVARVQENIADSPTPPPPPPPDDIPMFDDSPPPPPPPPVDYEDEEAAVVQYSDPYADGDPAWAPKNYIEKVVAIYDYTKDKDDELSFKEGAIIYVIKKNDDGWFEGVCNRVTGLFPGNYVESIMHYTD
UniProt Q8BH43: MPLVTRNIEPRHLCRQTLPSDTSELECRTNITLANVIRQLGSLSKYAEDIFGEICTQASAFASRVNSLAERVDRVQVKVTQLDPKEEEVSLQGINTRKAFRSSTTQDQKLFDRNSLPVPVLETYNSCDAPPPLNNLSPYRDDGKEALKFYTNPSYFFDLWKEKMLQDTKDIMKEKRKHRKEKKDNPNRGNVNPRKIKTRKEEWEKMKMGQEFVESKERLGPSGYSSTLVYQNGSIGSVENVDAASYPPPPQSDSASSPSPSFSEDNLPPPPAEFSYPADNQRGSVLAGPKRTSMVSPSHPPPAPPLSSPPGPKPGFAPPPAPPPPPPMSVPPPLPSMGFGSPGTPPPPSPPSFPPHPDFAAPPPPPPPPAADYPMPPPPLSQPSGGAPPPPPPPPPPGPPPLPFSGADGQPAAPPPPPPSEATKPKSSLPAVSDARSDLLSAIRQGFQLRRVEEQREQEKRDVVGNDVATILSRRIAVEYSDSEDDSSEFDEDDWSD
UniProt Q7L576: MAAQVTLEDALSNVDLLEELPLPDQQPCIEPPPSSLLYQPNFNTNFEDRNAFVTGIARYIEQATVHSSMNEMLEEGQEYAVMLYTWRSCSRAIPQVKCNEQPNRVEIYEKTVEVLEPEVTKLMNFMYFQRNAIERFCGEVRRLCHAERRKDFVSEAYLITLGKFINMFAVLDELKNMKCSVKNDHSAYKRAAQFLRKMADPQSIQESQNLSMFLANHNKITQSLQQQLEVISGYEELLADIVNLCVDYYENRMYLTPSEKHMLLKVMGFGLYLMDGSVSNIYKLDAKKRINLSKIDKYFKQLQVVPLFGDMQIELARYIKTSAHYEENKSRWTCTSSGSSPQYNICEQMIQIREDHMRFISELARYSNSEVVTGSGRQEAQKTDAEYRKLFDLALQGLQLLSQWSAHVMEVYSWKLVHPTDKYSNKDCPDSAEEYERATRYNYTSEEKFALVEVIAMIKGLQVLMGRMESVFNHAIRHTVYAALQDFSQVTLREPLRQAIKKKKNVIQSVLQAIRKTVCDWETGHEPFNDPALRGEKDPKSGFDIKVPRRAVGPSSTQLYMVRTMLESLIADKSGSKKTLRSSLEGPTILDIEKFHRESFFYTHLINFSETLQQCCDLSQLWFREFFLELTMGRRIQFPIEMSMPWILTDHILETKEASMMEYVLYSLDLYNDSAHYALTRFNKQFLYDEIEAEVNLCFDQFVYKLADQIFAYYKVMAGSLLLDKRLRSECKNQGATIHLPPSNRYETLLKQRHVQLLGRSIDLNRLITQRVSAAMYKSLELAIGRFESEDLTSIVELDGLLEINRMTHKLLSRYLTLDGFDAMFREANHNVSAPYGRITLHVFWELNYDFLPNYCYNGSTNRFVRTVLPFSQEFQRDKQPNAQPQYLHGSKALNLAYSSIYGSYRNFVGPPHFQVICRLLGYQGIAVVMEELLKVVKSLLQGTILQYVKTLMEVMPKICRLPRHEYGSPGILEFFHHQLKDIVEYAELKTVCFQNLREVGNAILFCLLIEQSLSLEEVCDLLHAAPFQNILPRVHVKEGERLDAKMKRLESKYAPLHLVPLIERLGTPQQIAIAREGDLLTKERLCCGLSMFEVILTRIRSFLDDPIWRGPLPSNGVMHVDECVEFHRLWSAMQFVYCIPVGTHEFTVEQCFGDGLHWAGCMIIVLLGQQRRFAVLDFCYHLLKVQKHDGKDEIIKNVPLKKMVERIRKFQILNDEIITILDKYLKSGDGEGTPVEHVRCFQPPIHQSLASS

Measured: binding

Abi1 (endogenous, B16-F1) (from UniProt Q8CBW3 1-481)
binds: [1] | [2] | [3] | [4]

WAVE2 (endogenous, B16-F1) (from UniProt Q8BH43 1-497)
binds: [1] | [2] | [3] | [4]

ΔWRC230 (from UniProt Q7L576 1-1253; Q9Y2A7 1-1128; Q92558 1-230; Q9NYB9 1-158; Q8WUW1 1-75) (complex)
binds: [5] | [6]
